Reference: patent US20230157939A1, “PERSONAL CARE COMPOSITIONS WITH ENHANCED SOLUBILITY ACTIVES” (Conopco, Inc., d/b/a UNILEVER, priority 2020, published 2023)
The name of at least one read-out is uncertain.

assay: Evaluation of cystine crystallization (visual appearance) in the presence of cystine derivatives; type: physicochemical; conditions: summary of the Examples; NDAC effect at pH range of 5 to 7

Row | SMILES | effect of the cystine derivative on cystine solubilization / crystallization, in words
1 | CC(=O)N[C@@H](CS)C(=O)O [NACys, N-Acetyl-L-Cysteine] | effective at inhibiting the crystallization of cystine
2 | CC(=O)N[C@@H](CSSC[C@H](NC(C)=O)C(=O)O)C(=O)O [NDAC, N,N′-Diacetyl-L-Cystine] | effective at solubilizing cystine
3 | CCOC(=O)[C@@H](N)CSSC[C@H](N)C(=O)OCC [DEC, L-Cystine diethyl ester] | does not solubilize cystine nor does it prevent cystine crystallization
